Patent US11723886B2, “Targeting ocular diseases with novel APE1/Ref-1 inhibitors” (Indiana University Research and Technology Corporation, priority 2018, dated 2023)
Some entries share one result that the patent states for a list of compounds.

Test system: VEGFA, VCAM1, CCL20 mRNA (downstream of NF-κB)
Test: qRT-PCR of VEGFA, VCAM1 and CCL20 mRNA in HRECs
Type: cell-based, human
Details: vs DMSO

SMILES | decrease of VEGFA, VCAM1 and CCL20 mRNA
CCC/C(=C\C1=C(OC)C(=O)c2ccccc2C1=O)C(=O)NOC [APX2014, (2E)-2-[(3-methoxy-1,4-dioxo-1,4-dihydronapthalen-2-yl)methylidene]-N-methoxypentanamide] | 3- to 10 fold
CCC/C(=C\C1=C(OC)C(=O)c2ccccc2C1=O)C(=O)N(CC)CC [APX2009, (2E)-2-[(3-methoxy-1,4-dioxo-1,4-dihydronaphthalen-2-yl)methylidene]-N,N-diethylpentanamide] | 3- to 10 fold
